Test results: paper PMC4695026
Results are given in words; binding and its absence hold for the method and conditions named. In cells and extracts the contact can be indirect. Some entries that bind do so weakly or less than the wild type. For part of these data: Tags and fused reporters may be left off the sequences shown.

Protein sequences, listed by entry. Tags and fused reporters are not part of them.
UniProt Q96J94: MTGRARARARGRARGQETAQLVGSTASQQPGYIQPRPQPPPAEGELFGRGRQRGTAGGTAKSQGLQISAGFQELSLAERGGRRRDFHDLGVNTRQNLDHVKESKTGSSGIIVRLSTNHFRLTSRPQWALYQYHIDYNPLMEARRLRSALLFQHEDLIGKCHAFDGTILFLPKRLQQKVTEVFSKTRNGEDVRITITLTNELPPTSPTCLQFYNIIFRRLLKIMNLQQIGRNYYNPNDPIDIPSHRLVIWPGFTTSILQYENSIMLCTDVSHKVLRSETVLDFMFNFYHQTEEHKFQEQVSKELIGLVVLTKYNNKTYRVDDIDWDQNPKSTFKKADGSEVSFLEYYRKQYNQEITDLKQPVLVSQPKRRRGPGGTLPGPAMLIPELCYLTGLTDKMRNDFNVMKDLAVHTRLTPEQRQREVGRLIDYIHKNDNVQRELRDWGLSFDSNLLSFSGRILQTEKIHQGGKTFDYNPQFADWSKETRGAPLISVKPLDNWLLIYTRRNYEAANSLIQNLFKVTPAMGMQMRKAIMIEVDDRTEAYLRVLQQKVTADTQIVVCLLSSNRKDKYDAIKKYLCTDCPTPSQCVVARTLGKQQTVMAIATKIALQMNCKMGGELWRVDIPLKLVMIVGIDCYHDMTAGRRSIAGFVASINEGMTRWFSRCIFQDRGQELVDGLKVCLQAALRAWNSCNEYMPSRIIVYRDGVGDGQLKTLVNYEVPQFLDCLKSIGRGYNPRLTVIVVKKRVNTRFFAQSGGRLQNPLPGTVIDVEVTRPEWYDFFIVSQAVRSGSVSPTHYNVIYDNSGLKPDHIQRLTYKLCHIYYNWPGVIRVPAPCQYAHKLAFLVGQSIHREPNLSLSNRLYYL

Legend:
[1] = target: T1, Stathmin1 (endogenous) (human (endogenous in HeLa, HepG2, MCF7)) (UniProt P16949); test: co-IP; cells transfected with tagged constructs (Myc-tagged PIWIL1 or its deletion mutants, GFP-tagged STMN1 mutants); lysate with 1-3 ug antibody or IgG overnight, protein A+G agarose beads 2 h; Western blot
T1 sequence: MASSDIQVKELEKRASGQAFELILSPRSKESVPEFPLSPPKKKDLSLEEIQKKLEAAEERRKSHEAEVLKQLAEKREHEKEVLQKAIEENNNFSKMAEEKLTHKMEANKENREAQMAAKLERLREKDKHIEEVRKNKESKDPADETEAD

[2] = target: T1, Stathmin1 (endogenous) (human (endogenous in HeLa, HepG2, MCF7)); test: co-IP; cytosolic (C)/nuclear (N) fractionation of cells
HA-tagged STMN1 = target: T2, HA-tagged STMN1 (UniProt P16949); test: co-IP; two-step immunoprecipitation: HeLa cells transfected with control vector or HA-STMN1; first IP with anti-HA, elution with 4xHA peptide, second IP with anti-PIWIL1 or IgG
T2 sequence: T1 sequence

[3] = target: T1, Stathmin1 (endogenous) (human (endogenous in HeLa, HepG2, MCF7)); test: co-IP; endogenous proteins; cell lysate (HeLa, HepG2, MCF7) incubated with 1-3 ug target antibody or IgG overnight, then protein A+G agarose beads 2 h; Western blot; in some panels HeLa cells transfected with PIWIL1 or shPIWIL1 vectors
[4] = target: T3, STMN1 (in vitro translated) (UniProt P16949); test: co-IP; PIWIL1 and STMN1 made separately with the TNT Quick Coupled in vitro transcription/translation system (30°C, 90 min); 30 ul of each mixed in 200 ul lysis buffer for co-IP
T3 sequence: T1 sequence

[5] = target: T1, Stathmin1 (endogenous) (human (endogenous in HeLa, HepG2, MCF7)); test: co-IP; endogenous proteins; cell lysate (HeLa, HepG2, MCF7) incubated with 1-3 ug target antibody or IgG overnight, then protein A+G agarose beads 2 h; Western blot; in some panels HeLa cells transfected with PIWIL1 or shPIWIL1 vectors; remark: listed apart in the source

With “Myc-tagged PIWIL1 (from UniProt Q96J94 1-861)” the binding [1] was “binds”.

With “PIWIL1 (endogenous) (from UniProt Q96J94 1-861)” the binding [2] was “binds”, the binding (HA-tagged STMN1) was “binds” and the binding [3] was “binds”.

“PIWIL1 (in vitro translated) (from UniProt Q96J94 1-861)” was tested, and the binding [4] was “binds”.

B1: RLIM (enzyme, UniProt Q9NVW2 1-624)
chain: MENSDSNDKGSGDQSAAQRRSQMDRLDREEAFYQFVNNLSEEDYRLMRDNNLLGTPGESTEEELLRRLQQIKEGPPPQNSDENRGGDSSDDVSNGDSIIDWLNSVRQTGNTTRSGQRGNQSWRAVSRTNPNSGDFRFSLEINVNRNNGSQNSENENEPSARRSSGENVENNSQRQVENPRSESTSARPSRSERNSTEALTEVPPTRGQRRARSRSPDHRRTRARAERSRSPLHPMSEIPRRSHHSISSQTFEHPLVNETEGSSRTRHHVTLRQQISGPELLSRGLFAASGTRNASQGAGSSDTAASGESTGSGQRPPTIVLDLQVRRVRPGEYRQRDSIASRTRSRSQTPNNTVTYESERGGFRRTFSRSERAGVRTYVSTIRIPIRRILNTGLSETTSVAIQTMLRQIMTGFGELSYFMYSDSDSEPTGSVSNRNMERAESRSGRGGSGGGSSSGSSSSSSSSSSSSSSSSSSSSPSSSSGGESSETSSDLFEGSNEGSSSSGSSGARREGRHRAPVTFDESGSLPFLSLAQFFLLNEDDDDQPRGLTKEQIDNLAMRSFGENDALKTCSVCITEYTEGNKLRKLPCSHEYHVHCIDRWLSENSTCPICRRAVLASGNRESVV
With B1 the binding [5] was “binds”.
